Laboratory results: PubChem BioAssay AID602196 (INSERM, 2012)

- Purpose: 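Genes whose knock-down alters cisplatin killing of lung cancer cells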
- Cell system: human A549 lung cancer cells
- Reagent: siRNA pair against human genes
- Timing: 48 h transfection before cisplatin; time from cisplatin to read-out not stated
- Conditions: cisplatin at a dose killing half of control-siRNA cells; exact dose and duration not given
- Read-out: 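Cisplatin cell death as a shift from the 50% death seen with control siRNA; siRNAs toxic or growth-blocking alone scored 0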
- Scale: two-siRNA summed score (-2 to +2): higher = both siRNAs protect from cisplatin killing; -2 means both sensitise
- Active means: 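Each siRNA scores 0 if harmful alone by LDH or WST-1, otherwise +1 if it reduces and -1 if it increases cisplatin killing; a gene is active when both siRNAs agree (sum +2 or -2)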
- Meaning of the calls: active = both siRNAs shift cisplatin killing the same way; inactive = no consistent shift, or siRNA harmful alone
The deposit covers about 23,000 reagents; this is a part drawn at random. 455 of them (2%) count as active. 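Active includes both protection and sensitisation; some change values fall well beyond the stated -50 to +50 range.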 Not all columns of the deposit are shown. Not given: the amount of reagent.

no.	target gene	two-siRNA summed score (-2 to +2)	Outcome
1	TAS2R39	1	inactive
2	VTI1BP2	0	inactive
3	API5	0	inactive
4	PPP1CA	0	inactive
5	LOC389457	1	inactive
6	POLDIP3	1	inactive
7	LOC391347	0	inactive
8	SS18	-1	inactive
9	LOC389199	0	inactive
10	LOC402663	1	inactive
11	LBHD1	0	inactive
12	TPST2	1	inactive
13	KIR3DX1	0	inactive
14	DUSP26	-1	inactive
15	GDPD2	0	inactive
16	CLEC4D	0	inactive
17	BAIAP2-DT	0	inactive
18	TDP2	0	inactive
19	GPR135	-1	inactive
20	C8G	1	inactive
21	ZNF208	1	inactive
22	LOC401038	0	inactive
23	TRIM22	0	inactive
24	KMT5B	0	inactive
25	LOC402055	0	inactive
26	LINC01854	0	inactive
27	RIPPLY3	0	inactive
28	THOC6	0	inactive
29	ZNF491	0	inactive
30	PRIMA1	0	inactive
31	KIF22	-1	inactive
32	LOC440733	0	inactive
33	OR13H1	1	inactive
34	ATP6V1A	0	inactive
35	AGO3	2	active
36	GPR62	0	inactive
37	STAMBP	-1	inactive
38	COX4I1	1	inactive
39	PRDM1	-1	inactive
40	MYLIP	0	inactive
41	PAFAH1B3	-1	inactive
42	LOC441552	1	inactive
43	LOC440927	0	inactive
44	MARK4	1	inactive
45	SYT15	0	inactive
46	EIF2D	1	inactive
47	LOC392265	0	inactive
48	TRAPPC6A	0	inactive
49	KCNH6	0	inactive
50	HPX	-1	inactive
51	MTMR4	2	active
52	ARPC1A	0	inactive
53	LOC440452	0	inactive
54	SLC25A3P1	1	inactive
55	GRID2IP	-1	inactive
56	BCL7C	0	inactive
57	LOC400030	0	inactive
58	RBM20	1	inactive
59	SSX2IP	0	inactive
60	ANKRD30A	0	inactive
61	DNAI1	0	inactive
62	LOC392726	0	inactive
63	TRIM5	0	inactive
64	C21orf58	0	inactive
65	LOC440605	0	inactive
66	DNASE1L2	-1	inactive
67	SLF1	0	inactive
68	KLHDC1	0	inactive
69	P2RY11	1	inactive
70	SLC66A2	0	inactive
71	HACD4	0	inactive
72	CLTCL1	-1	inactive
73	RPA3P1	0	inactive

An excerpt of the results above:
no.	target gene	two-siRNA summed score (-2 to +2)	Outcome
60	ANKRD30A	0	inactive
61	DNAI1	0	inactive
62	LOC392726	0	inactive
63	TRIM5	0	inactive
64	C21orf58	0	inactive
65	LOC440605	0	inactive
66	DNASE1L2	-1	inactive
67	SLF1	0	inactive
68	KLHDC1	0	inactive
69	P2RY11	1	inactive
70	SLC66A2	0	inactive
71	HACD4	0	inactive
